Sequences of proteins named here, by UniProt entry; tags and fusion partners are left off.
UniProt Q05940, whole entry: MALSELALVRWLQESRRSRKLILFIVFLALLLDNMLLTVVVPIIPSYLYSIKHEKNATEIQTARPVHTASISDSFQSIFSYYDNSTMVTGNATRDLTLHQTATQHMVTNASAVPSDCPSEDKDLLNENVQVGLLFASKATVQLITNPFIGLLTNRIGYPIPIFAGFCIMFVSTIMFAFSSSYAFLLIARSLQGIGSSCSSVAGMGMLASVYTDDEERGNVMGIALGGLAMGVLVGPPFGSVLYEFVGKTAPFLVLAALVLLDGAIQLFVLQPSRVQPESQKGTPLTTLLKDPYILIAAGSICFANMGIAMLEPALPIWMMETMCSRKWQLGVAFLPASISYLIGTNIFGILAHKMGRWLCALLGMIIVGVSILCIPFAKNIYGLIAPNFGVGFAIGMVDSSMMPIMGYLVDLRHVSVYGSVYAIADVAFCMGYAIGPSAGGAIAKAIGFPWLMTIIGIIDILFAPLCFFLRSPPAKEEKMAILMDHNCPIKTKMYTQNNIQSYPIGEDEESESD

In US20230091671A1 (priority 2020, published 2023):

Target: vesicular monoamine transporter 2 (VMAT2) (Homo sapiens, UniProt Q05940)

## CN1CC[C@]23c4c5ccc(O)c4O[C@H]2[C@@H](O)C=C[C@H]3[C@H]1C5 [morphine]
  blockade of neurotransmitter uptake by VMAT / VMAT2: but not morphine
